For experiment [1], the target named is LamininB1 (LanB1), GFP-tagged (Drosophila melanogaster) (UniProt P11046). Nature of the experiment: affinity purification with mass spectrometry; single step affinity enrichment of the GFP-tagged bait on magnetic beads pre-coupled to anti-GFP antibodies from cleared lysate of about hundred 24 to 48 hr pupae or hundred adult flies; triplicates; in-column tryptic digestion; label-free quantification (MaxLFQ); wild-type fly strain as control.

The chains behind the UniProt entries cited, without tags or fusion partners. Residues count along the entry.
UniProt P11046, residues 25-1788: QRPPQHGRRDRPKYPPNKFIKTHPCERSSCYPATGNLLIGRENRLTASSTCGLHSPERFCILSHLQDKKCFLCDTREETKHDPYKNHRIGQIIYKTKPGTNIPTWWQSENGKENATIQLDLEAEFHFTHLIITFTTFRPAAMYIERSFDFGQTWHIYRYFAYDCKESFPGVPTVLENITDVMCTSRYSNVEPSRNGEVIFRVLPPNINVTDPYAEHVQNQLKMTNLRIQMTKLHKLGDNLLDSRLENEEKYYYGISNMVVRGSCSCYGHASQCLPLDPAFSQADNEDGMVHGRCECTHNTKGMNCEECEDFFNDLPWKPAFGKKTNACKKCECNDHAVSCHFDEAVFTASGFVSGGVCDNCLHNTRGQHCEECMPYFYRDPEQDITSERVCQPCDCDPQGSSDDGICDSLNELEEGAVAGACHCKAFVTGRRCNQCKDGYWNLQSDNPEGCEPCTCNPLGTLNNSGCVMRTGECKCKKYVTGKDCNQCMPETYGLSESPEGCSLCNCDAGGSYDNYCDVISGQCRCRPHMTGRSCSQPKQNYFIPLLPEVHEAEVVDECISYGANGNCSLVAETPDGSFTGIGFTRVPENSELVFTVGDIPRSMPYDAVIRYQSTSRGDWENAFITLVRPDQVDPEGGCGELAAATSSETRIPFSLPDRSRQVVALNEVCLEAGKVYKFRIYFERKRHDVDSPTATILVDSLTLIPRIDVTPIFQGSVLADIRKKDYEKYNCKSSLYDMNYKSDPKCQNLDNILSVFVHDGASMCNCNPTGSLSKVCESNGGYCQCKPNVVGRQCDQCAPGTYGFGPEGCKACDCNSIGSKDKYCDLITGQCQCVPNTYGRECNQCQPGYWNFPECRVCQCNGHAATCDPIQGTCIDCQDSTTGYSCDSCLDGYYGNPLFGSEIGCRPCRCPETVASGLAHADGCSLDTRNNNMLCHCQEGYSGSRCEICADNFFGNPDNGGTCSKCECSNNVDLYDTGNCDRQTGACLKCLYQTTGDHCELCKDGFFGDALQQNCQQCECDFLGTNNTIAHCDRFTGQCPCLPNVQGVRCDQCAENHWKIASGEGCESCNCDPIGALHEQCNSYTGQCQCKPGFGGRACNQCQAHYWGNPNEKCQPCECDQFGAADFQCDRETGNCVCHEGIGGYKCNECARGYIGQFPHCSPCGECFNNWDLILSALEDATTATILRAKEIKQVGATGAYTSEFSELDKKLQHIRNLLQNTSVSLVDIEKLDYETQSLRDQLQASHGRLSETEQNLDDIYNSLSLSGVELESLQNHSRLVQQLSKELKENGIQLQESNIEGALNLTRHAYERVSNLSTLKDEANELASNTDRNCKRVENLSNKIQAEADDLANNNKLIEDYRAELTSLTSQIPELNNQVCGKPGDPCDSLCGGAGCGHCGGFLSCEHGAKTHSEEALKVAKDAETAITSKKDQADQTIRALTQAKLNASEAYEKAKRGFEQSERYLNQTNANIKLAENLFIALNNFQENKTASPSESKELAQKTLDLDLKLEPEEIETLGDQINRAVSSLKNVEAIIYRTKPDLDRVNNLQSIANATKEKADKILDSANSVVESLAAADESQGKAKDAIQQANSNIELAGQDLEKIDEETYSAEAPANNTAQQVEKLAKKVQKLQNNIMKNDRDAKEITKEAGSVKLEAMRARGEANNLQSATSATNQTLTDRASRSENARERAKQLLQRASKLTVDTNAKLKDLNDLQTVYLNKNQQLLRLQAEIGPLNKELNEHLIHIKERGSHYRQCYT
UniProt P15215, residues 34-1639: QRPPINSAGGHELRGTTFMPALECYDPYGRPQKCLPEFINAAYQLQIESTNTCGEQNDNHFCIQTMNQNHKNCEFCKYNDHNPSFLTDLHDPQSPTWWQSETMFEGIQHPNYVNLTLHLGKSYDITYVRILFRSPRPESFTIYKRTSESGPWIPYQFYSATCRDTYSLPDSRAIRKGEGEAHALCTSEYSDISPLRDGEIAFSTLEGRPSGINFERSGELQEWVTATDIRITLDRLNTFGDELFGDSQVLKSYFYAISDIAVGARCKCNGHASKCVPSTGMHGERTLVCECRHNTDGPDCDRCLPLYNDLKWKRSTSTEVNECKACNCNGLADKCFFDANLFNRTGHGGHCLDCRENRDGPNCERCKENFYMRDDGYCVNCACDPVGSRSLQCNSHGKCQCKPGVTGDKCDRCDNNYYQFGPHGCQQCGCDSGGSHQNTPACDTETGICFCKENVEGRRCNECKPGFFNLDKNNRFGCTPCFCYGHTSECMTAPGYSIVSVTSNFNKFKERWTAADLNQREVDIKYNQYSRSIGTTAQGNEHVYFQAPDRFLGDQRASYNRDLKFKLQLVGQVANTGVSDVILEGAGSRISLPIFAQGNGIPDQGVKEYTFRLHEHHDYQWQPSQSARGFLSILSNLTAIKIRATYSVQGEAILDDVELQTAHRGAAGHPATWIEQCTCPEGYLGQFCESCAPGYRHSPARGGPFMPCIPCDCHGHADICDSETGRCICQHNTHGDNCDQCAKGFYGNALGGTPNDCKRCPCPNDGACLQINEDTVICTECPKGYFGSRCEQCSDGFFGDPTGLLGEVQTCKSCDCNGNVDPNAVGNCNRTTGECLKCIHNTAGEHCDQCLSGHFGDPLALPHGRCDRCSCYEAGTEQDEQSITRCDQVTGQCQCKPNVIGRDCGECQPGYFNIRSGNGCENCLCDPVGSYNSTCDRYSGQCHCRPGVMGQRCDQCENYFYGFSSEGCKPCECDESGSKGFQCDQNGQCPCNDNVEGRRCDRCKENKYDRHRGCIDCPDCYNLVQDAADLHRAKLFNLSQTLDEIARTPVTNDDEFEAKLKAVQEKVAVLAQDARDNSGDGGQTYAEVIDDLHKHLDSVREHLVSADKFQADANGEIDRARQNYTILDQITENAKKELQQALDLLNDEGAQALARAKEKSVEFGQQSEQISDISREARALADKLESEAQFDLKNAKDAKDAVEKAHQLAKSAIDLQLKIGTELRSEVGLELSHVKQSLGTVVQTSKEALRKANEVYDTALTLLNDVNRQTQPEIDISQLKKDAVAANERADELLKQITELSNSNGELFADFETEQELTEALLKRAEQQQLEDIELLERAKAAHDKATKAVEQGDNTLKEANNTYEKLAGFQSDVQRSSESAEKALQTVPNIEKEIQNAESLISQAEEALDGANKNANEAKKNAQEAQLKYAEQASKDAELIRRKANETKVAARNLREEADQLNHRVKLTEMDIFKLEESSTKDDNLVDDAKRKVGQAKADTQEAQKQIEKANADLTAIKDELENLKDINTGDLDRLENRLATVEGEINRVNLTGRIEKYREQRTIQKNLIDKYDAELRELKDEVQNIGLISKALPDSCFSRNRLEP

The target in experiment [2] is T1, discs large 1 (Dlg1), GFP-tagged (Drosophila melanogaster) (UniProt P31007).
T1 sequence: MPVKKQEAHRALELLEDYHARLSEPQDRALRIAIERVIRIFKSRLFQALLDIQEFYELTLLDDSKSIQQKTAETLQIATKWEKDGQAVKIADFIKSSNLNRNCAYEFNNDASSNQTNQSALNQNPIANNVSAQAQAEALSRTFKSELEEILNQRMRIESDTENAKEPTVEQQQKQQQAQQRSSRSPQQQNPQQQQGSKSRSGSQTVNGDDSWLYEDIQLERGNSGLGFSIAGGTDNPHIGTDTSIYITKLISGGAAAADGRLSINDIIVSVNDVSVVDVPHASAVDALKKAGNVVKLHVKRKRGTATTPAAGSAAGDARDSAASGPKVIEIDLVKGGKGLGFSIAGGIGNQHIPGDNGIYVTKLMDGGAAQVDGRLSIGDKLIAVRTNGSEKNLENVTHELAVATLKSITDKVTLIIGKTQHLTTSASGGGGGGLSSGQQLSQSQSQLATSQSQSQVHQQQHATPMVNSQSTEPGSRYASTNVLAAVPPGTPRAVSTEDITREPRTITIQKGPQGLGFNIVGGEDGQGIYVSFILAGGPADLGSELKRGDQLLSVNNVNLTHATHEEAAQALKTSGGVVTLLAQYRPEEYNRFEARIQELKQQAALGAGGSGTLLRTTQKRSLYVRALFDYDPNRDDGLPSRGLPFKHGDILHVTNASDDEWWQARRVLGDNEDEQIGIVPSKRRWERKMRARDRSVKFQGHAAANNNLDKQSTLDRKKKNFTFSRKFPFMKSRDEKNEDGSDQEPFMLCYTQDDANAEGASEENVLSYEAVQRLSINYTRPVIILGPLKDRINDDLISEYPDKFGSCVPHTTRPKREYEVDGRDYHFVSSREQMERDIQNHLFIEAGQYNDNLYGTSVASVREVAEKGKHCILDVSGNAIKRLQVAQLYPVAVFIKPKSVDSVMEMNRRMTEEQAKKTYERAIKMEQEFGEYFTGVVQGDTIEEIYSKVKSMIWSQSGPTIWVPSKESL
The experiment is described as above.

The results in this text go back to article PMC4805545.

No constants are given. Whether binding was seen depends on the method and setting. In cells and extracts the contact can be indirect. These calls come from enrichment with a bait or labelling near it, and not all partners need be listed. For part of these data: Tags and fused reporters may be left off the sequences shown.

Regarding “LamininA (LanA) (from UniProt Q00174 23-3712)”, the binding result in experiment [1] was “binds”. On the same count and under the same terms, as for LanB2 (from UniProt P15215 34-1639), the entry is “binds”.

B1: Mesh (protein, UniProt Q0KHY3 22-1454)
chain: NENISTEEFEDQIINAVPEPVKVTKPKAQAEFVEVPKATPAPKKAEADNPKTKPLALQKPTLIPVVHVSSRGTDDILTVAGLKPEKMFGALIMPNDYLGELYDVDNSGYNWDPNNNVAPPTTYSTAAGGYTITAARLAELRSNFMYWYFDKDMYGGRGDYQFDIHASMTQLHKNLNFQLPFYGFRFNYTRLSLNGYLEFSDPPEYLTYPLVFPIKDWPAKRDPSFMGIFFSKCRVGRIYPSDIDQRTPGVYFRVERDLMGRTDRFGVEVRERTMWDIRQGVVGADTFIPKHVVIATWKNVSFAGGIDNSLYTTNTFQMVLATDEVYTYIIFNYAVLNWLSHTEAGGDTTKGEGGVPAYVGFNAGNGTQAYEYNPYSQNMVIRDLANRGWANGFPGRHIFRVDEQILIGSCNKDIDAALLPLTFAPESGNMLGGQVVNITGPCFDPAIRVTCHFDTESVLGTYVDRNRVICVQPYLKAEGYIRFQISVGTQRFKWRGKYFVETPAAATEKIFFTTDDVHKKNPAEIRITWNQYNLTSNANANVMISLWGYRETKIEPQLEYIDVIEASYSNSGSYVITPSNYINRNNINRDMQFGFLQINLTQPDQYSGLAISPVLWSRPIPLAWYMAPQWERQHGKRWARALCDNWIRADRFLRNFAADLPLCPCTLDQAVLDKGRFRPDRECDKDSNPSCLRHRGAIHCVVSGTPVAQGAEQQCCYDRYGFLMLTYDQMWGSRPRRVHNLGKMPWNEASKVPSLSMWFHDMRPFYSCCYWQEEQAVGCETYRFERRPSQDCVAYQAPGIAGVFGDPHFVTFDGTAYTFNGLGEFVLARSVDESNKFEVQGRFEQLPVNYYGEVKATQLTAVAMRGNTTTTIEVRLRPLHARWRYRLDVLADGRRVYFDRESLKFQHFDGVTVYTPTYLLNQSQVVVQFDAGIGVEVVENEGYMTGRVFLPWKFINKTAGLFGNWSFNKLDDFMLPNGQVAQLNLNDLRSIHTNFGIKWMLTDREVPGVGAALFKREFGRMSGYYANATFQPNYVLDPADFLPANRSYDLERAEELCGECMQCQYDYAMTLNRDLAHFTKNYYDTIVNMQAENAVRVVSCGVLQTPRFGRKLSFDFMPGAKVSFECNEGFILIGDQRRECLSNGLWNIPEYGYTECLREVYYTRRVAFIAIGIIFLVICPLMLCIVCGVYRYRQKQLKEDPQWQMPMLPRSRASSARNLRTLNYDDDSDTDASTLKKSRSYDKVYRTNEPLPGKPQIDFPAKKWDLDENDEDVTSSEGEKPKQLGRRSLHSASGTELDQHGSPVDGDHPDEDDDFDEADVHTGTTHPVGYHQPLSPEEADQLHRQQYSPTFSGLDSRTSGASSINYTPQAATQNRFGGVPVLPSNTQYYSRPPSSVNTVPLRTAPTPLTQDTGLPSPPLATSPTPSVQKSTEV
For B1, the binding entry in experiment [2] is given as “binds”.
